Source: patent US20050288351A1, “Azaspiro compounds for the treatment of pain” (Schwarz Pharma AG, priority 2002, published 2005)

Test system: NMRl mice
Test: formalin test, in-vivo test for determining the analgesic efficacy
Details: 8 mg/kg, average of 9 test series
Method: FIG. 1 and Table 1 show the reaction of test animals (10 mice each) 20-45 minutes after the intraperitoneal administration of selected compounds. In each case, the maximum dosage selected for the concentration of azaspiro compounds was held, by a factor of about 2, below the toxic dose previously determined in the IRWIN test (Irwin, Psychopharmacologia 13 (1968) 222).
For the purpose of this patent application, the term “mean deviation of the pain reaction” refers to a relative deviation that is obtained when the average time of pain reaction of 10 animals treated with active agents in a test series as described in implementation Example #8 is compared, over a defined period (20-25′, 30-35′ or 40-45′ after formalin injection), with the average time of the pain reaction of 10 control animals treated with an excipient. A reduction in the pain reaction is expressed in negative percentage figures.
The test was conducted as described by Wheeler-Aceto (Psychopharmacology 104, 1991, 35).
NMRl mice having a weight of 20-25 g were kept under controlled conditions (22±2° C., 40-70% relative humidity). 25 μl of a 5% […] solution was injected in the hind leg and the leg-licking frequency was then clocked for 5 minutes each at defined intervals (20, 30, 40 minutes).
First, the highest possible non-toxic concentration of the respective test substances that could be used was determined by an IRWIN test (Irwin, Psychopharmacologia 13, 1968, 222).
The test substances were dissolved in a physiological salt solution with 0.5% sodium carboxymethyl cellulose and were each measured in 1-3 dosages that had been applied intraperitoneally 10 minutes before administration of formalin. The comparative reference value was provided by a control excipient (10 ml/kg).
The test was performed in blind fashion on 10 mice per test series. The evaluation was based on a comparison of the treated animals with control excipients at three different times. […] The statistical significance was determined using the Mann-Whitney U-test.

CN1CC[C@]23c4c5ccc(O)c4O[C@H]2[C@@H](O)C=C[C@H]3[C@H]1C5 [Morphine, reference compound]
Mean deviation of the pain reaction compared to control (%) (n minutes after administration of formalin) 20-25′ (20-25′ after formalin): −87% | Mean deviation of the pain reaction compared to control (%) (n minutes after administration of formalin) 30-35′ (30-35′ after formalin): −95% | Mean deviation of the pain reaction compared to control (%) (n minutes after administration of formalin) 40-45′ (40-45′ after formalin): −88%
